Compound in this test: Cc1cc(ccc1-c1ccccc1)C(=O)N1CCCN(CC1)C(=O)CCl [compound 10]
The test can be described thus: probe-labelled cysteine peptide fold change vs DMSO (competition) (log2 fold change); higher = less target engagement (more negative = stronger competition). Conditions: THP-1, incubation time: 4 h.

Sequences of proteins named here, by UniProt entry; tags and fusion partners are left off. A change or cut given only in a name is not applied to a line headed by its entry.
UniProt Q92610: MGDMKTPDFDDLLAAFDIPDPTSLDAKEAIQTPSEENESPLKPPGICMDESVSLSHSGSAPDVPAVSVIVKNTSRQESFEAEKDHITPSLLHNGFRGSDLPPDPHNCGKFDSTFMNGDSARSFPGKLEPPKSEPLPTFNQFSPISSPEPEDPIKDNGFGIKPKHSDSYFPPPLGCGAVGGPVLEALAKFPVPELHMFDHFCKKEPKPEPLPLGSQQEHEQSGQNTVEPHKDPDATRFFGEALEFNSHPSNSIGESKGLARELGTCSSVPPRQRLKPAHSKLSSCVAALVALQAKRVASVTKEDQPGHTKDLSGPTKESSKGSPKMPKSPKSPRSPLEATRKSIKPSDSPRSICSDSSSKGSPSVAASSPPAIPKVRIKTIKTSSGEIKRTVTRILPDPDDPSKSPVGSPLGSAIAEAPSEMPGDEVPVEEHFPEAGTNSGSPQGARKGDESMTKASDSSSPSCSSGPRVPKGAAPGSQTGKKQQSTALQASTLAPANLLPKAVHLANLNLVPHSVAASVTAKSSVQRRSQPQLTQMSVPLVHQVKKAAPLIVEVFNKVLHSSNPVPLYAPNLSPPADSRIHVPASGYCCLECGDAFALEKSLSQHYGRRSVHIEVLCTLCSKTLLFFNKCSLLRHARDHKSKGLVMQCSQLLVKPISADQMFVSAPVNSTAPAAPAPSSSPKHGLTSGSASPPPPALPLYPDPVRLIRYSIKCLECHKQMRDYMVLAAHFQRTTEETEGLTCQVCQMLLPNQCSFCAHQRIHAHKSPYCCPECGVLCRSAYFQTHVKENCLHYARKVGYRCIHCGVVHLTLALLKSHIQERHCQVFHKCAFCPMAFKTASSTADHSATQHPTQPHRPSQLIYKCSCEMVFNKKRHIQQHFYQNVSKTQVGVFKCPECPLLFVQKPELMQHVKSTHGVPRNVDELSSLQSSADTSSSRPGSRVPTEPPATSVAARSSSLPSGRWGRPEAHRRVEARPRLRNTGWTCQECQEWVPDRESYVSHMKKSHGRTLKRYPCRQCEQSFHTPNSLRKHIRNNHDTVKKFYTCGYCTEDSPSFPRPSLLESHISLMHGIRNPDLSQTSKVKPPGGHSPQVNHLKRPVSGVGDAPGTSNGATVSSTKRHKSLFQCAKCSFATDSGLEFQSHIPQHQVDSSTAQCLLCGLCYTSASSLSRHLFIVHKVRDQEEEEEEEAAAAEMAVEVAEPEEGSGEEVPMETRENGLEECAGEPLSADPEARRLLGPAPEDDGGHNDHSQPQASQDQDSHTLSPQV
UniProt Q9H2Y7: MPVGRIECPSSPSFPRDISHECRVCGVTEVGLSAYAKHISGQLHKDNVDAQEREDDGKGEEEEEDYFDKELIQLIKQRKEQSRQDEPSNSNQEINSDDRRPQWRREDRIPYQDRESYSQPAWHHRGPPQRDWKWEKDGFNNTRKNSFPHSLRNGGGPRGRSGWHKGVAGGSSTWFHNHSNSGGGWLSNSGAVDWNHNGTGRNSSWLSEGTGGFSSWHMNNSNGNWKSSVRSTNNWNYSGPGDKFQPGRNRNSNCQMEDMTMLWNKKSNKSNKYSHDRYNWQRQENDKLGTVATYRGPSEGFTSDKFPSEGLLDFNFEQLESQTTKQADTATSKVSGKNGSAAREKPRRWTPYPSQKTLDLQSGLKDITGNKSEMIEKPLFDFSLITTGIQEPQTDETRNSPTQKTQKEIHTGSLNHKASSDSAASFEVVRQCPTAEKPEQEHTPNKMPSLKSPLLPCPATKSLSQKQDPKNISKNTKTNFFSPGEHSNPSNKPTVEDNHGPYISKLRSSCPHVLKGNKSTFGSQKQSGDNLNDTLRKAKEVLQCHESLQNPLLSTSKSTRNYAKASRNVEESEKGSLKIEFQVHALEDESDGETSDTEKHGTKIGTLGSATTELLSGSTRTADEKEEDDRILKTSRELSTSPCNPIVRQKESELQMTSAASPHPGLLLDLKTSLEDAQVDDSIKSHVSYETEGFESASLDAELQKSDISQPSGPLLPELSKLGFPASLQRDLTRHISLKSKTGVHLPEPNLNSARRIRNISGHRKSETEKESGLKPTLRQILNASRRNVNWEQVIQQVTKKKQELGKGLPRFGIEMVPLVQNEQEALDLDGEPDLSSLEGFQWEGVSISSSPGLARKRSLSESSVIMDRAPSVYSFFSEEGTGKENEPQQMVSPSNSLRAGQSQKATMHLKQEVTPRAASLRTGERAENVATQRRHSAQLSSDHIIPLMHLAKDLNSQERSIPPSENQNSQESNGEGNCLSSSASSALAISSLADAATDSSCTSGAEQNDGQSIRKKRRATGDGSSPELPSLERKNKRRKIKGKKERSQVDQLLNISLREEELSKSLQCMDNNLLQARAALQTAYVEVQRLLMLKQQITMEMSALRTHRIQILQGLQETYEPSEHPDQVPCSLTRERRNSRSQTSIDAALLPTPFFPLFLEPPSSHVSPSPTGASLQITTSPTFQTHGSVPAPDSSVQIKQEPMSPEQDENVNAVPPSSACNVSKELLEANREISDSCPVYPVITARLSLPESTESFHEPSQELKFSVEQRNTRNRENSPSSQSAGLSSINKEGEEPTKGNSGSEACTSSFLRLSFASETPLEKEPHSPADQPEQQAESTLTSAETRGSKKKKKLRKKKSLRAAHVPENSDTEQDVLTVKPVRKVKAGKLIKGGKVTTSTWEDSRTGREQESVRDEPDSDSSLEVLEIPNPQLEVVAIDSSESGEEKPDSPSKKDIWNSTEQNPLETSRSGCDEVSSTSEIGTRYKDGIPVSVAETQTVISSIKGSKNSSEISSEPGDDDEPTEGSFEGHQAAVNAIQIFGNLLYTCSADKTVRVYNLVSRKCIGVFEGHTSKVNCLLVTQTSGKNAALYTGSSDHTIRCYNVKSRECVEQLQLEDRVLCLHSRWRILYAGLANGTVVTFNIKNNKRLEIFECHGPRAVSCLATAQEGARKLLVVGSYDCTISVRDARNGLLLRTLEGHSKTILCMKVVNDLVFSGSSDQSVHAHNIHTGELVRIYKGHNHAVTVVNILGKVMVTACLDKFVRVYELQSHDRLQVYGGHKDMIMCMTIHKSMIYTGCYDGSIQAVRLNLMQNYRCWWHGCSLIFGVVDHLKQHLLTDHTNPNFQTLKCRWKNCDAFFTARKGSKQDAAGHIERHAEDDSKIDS
UniProt Q5T7W0: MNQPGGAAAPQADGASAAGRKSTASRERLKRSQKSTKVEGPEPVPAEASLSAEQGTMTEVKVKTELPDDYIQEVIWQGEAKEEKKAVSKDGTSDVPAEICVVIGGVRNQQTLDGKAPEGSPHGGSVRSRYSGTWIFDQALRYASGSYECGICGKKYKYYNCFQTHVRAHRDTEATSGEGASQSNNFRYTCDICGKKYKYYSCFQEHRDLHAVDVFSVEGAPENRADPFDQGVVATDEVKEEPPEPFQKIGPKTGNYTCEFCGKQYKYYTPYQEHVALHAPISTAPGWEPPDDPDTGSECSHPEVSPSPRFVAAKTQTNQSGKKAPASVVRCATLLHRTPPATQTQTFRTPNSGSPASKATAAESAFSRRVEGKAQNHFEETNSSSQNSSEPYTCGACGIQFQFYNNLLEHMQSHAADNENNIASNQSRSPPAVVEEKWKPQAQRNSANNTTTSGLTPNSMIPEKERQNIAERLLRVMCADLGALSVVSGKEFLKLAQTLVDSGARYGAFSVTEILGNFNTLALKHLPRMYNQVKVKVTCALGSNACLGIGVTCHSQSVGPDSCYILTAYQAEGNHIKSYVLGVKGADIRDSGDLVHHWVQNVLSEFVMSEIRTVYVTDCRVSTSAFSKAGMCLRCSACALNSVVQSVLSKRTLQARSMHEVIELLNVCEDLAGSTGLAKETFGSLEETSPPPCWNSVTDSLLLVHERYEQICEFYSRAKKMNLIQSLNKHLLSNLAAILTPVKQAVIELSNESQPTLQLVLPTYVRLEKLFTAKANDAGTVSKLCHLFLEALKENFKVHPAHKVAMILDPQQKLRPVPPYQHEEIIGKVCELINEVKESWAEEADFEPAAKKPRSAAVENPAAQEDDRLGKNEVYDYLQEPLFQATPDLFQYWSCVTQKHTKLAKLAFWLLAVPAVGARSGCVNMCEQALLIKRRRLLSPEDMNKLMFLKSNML
UniProt Q9Y3S2: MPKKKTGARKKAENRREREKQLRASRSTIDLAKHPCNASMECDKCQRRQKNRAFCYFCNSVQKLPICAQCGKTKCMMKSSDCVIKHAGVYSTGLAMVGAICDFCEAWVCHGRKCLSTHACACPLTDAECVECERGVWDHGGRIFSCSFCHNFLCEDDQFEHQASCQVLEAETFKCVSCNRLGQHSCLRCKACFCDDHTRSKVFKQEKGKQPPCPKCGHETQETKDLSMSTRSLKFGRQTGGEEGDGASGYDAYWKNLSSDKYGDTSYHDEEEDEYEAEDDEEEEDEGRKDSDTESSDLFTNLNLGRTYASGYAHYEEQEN
UniProt Q96KR1: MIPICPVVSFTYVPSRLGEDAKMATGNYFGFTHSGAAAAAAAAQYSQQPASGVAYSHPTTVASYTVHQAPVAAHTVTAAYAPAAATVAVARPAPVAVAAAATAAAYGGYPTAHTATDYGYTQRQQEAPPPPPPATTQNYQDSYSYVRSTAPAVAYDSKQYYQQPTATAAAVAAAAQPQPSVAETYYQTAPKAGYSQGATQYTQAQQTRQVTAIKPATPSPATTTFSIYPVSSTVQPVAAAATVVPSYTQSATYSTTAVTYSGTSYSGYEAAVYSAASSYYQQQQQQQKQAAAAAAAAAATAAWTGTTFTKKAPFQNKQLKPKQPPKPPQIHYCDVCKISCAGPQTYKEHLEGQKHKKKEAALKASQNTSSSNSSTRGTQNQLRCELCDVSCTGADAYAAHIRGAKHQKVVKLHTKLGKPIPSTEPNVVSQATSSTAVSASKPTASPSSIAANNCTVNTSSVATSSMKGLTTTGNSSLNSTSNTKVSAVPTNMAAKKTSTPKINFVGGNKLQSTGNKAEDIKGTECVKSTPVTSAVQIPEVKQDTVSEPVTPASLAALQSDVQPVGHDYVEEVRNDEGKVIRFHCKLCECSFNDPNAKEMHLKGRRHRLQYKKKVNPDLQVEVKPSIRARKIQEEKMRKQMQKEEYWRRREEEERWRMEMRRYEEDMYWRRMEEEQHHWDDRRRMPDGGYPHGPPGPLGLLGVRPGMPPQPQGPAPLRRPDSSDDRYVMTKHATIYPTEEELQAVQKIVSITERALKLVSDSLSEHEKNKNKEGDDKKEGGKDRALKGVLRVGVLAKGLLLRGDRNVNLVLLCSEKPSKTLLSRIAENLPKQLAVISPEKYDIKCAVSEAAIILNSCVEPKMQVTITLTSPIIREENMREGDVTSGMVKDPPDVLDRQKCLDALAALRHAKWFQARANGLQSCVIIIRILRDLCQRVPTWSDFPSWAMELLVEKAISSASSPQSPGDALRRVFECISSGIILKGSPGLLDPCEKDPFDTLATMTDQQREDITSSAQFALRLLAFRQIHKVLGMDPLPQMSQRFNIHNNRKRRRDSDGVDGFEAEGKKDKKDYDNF
UniProt Q9Y4E5: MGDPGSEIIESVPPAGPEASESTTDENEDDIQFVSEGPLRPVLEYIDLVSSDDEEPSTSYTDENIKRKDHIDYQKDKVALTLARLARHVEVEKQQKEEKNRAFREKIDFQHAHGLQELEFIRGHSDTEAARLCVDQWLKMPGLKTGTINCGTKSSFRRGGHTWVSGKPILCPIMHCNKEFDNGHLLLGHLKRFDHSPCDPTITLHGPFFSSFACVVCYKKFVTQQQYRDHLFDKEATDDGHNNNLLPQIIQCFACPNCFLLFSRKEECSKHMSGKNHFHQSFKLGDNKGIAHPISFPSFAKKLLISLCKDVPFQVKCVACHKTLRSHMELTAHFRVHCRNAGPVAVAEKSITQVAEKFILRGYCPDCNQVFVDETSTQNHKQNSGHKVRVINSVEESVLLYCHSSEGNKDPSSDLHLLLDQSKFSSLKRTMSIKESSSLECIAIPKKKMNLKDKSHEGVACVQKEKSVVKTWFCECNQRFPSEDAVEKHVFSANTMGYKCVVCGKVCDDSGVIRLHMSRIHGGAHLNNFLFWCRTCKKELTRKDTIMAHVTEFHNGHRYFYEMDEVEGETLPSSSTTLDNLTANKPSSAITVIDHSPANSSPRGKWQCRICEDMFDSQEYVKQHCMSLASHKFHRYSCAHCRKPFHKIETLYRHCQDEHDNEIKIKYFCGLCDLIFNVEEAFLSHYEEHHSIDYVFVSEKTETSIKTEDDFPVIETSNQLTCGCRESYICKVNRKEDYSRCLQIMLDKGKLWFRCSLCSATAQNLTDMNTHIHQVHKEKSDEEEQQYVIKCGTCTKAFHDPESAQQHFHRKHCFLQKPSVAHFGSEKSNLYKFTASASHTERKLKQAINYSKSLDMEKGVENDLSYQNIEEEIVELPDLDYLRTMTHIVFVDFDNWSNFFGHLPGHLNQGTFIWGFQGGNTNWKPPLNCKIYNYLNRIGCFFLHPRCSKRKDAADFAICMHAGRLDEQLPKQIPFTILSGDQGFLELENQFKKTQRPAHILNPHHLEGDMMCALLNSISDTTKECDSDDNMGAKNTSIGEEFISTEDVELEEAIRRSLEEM

The other results are listed elsewhere or left out.

Results on 39 targets are retold here after the supplement of paper PMC12067093, “Discovery and optimisation of a covalent ligand for TRIM25 and its application to targeted protein ubiquitination” (Chemical Science, 2025).
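Also: competitive profiling in live THP-1 cells: cysteine peptides tagged with an iodoacetamide desthiobiotin (IA-DTB) probe, intensity after compound treatment relative to DMSO-treated cells.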

With “ZNF592_Q92610_463_ASDSSSPSCSSGPR (UniProt Q92610)”, the “probe-labelled cysteine peptide fold change” value by setting is: (10 µM) -0.143; (50 µM) -0.425.
As for “ZFPL1_O95159_230_DDDRTPGLHGDCDDDK (UniProt O95159)”, the “probe-labelled cysteine peptide fold change” value reads like this: (10 µM) -0.305; (50 µM) -0.37.
Regarding “ZNF101_Q8IZC7_321_CPTSLQAHER (UniProt Q8IZC7)”, the “probe-labelled cysteine peptide fold change” value is 0.0329 (10 µM) and -0.232 (50 µM).
Take “ZNF217_O75362_641_SAVETQANNLICR (UniProt O75362)”: the “probe-labelled cysteine peptide fold change” value is, setting by setting: (10 µM) -0.181; (50 µM) -0.0706.
Take “ZNF106_Q9H2Y7_1576_VNCLLVTQTSGK (UniProt Q9H2Y7)”: the “probe-labelled cysteine peptide fold change” value (10 µM) is 0.11 and the “probe-labelled cysteine peptide fold change” value (50 µM) was 0.282.
For “ZNF106_Q9H2Y7_1238_EISDSCPVYPVITAR (UniProt Q9H2Y7)”, in that order: -0.0437 and -0.154.
The matching figures for “ZNF618_Q5T7W0_635+638_CSACALNSVVQSVLSK (UniProt Q5T7W0)”: -0.111 and 0.166.
As for “ZNF280D_Q6N043_630_CIECCSEIK (UniProt Q6N043)”, the “probe-labelled cysteine peptide fold change” value (10 µM) turned out to be 0.0174 and the “probe-labelled cysteine peptide fold change” value (50 µM) is 0.255.
In the case of “ZNF330_Q9Y3S2_194_ACFCDDHTR (UniProt Q9Y3S2)”, the “probe-labelled cysteine peptide fold change” value is 0.0104 (10 µM) and -0.13 (50 µM).
Take “ZFR_Q96KR1_391_CELCDVSCTGADAYAAHIR (UniProt Q96KR1)”: the “probe-labelled cysteine peptide fold change” value (10 µM) was determined as 0.0706 and the “probe-labelled cysteine peptide fold change” value (50 µM) was 0.173.
As for “ZNF292_O60281_1909_VNKPFVCQNQGCNYSAMTK (UniProt O60281)”, the “probe-labelled cysteine peptide fold change” value (10 µM) is -0.21 and the “probe-labelled cysteine peptide fold change” value (50 µM) is -0.386.
The matching figures for “ZNF592_Q92610_175_HSDSYFPPPLGCGAVGGPVLEALAK (UniProt Q92610)”: -0.00845 and -0.0644.
With “ZNF579_Q8NAF0_74_LSHSGLRPHACPLCPK (UniProt Q8NAF0)”, the “probe-labelled cysteine peptide fold change” value was found to be 0.2 (10 µM) and 0.222 (50 µM).
For “ZNF618_Q5T7W0_100_DGTSDVPAEICVVIGGVR (UniProt Q5T7W0)”, in that order: -0.0618 and -0.217.
Regarding “ZNF330_Q9Y3S2_216_CGHETQETK (UniProt Q9Y3S2)”, the “probe-labelled cysteine peptide fold change” value reads like this: (10 µM) 0.0434; (50 µM) -0.167.
In the case of “ZNF106_Q9H2Y7_22_DISHECR (UniProt Q9H2Y7)”, the “probe-labelled cysteine peptide fold change” value is, setting by setting: (10 µM) 0.118; (50 µM) 0.389.
The matching figures for “ZMYM4_Q5VZL5_1480_CSESVK (UniProt Q5VZL5)”: -0.156 and -0.0857.
With “ZNF691_Q5VV52_176_CQESFR (UniProt Q5VV52)”, the “probe-labelled cysteine peptide fold change” value reads like this: (10 µM) -0.0275; (50 µM) -0.0396.
With “ZFR_Q96KR1_340_ISCAGPQTYK (UniProt Q96KR1)”, the “probe-labelled cysteine peptide fold change” value runs as follows: (10 µM) -0.204; (50 µM) -0.163.
Take “ZFR_Q96KR1_812_NVNLVLLCSEK (UniProt Q96KR1)”: the “probe-labelled cysteine peptide fold change” value reads like this: (10 µM) -0.121; (50 µM) 0.402.
“ZMYND11_Q15326_73_DGLIVETLTVGCK (UniProt Q15326)”: the “probe-labelled cysteine peptide fold change” value (10 µM) was -0.167 and the “probe-labelled cysteine peptide fold change” value (50 µM) was -0.446.
With “ZFYVE1_Q9HBF4_45_CEEELHRQER (UniProt Q9HBF4)”, the “probe-labelled cysteine peptide fold change” value is 0.0583 (10 µM) and -0.322 (50 µM).
For the target “ZNF318_Q5VUA4_1071_DCNTICGTMFDFFTHMHNK (UniProt Q5VUA4)”, the “probe-labelled cysteine peptide fold change” value is, setting by setting: (10 µM) 0.0242; (50 µM) -0.00749.
“ZNF296_Q8WUU4_117_CLQTFPLEAITAFMDHK (UniProt Q8WUU4)”: the “probe-labelled cysteine peptide fold change” value runs as follows: (10 µM) 0.142; (50 µM) 0.552.
For “ZNF451_Q9Y4E5_364+367_GYCPDCNQVFVDETSTQNHK (UniProt Q9Y4E5)”, the “probe-labelled cysteine peptide fold change” value is -0.298 (10 µM) and -0.0836 (50 µM).
With “ZNF460_Q14592_450_PYVCIQCGK (UniProt Q14592)”, the “probe-labelled cysteine peptide fold change” value reads like this: (10 µM) 0.0308; (50 µM) -0.473.
“ZNF451_Q9Y4E5_176_GGHTWVSGKPILCPIMHCNK (UniProt Q9Y4E5)”: the “probe-labelled cysteine peptide fold change” value was -0.0384 (10 µM) and -0.279 (50 µM).
For “ZNF574_Q6ZN55_656_CAAAAAQAPR (UniProt Q6ZN55)”, in that order: 0.218 and 0.33.
For the target “ZFYVE19_Q96K21_104_AFCSGCLSFSAAVPR (UniProt Q96K21)”, the “probe-labelled cysteine peptide fold change” value is 0.0225 (10 µM) and -0.179 (50 µM).
The matching figures for “ZMYM3_Q14202_501_VYPCVWCK (UniProt Q14202)”: -0.0763 and -0.0366.
For “ZNF316_A6NFI3_808_AHTGERPYACGECGR (UniProt A6NFI3)”, in that order: 0.0636 and 0.146.
In the case of “ZNF687_Q8N1G0_860_CPSCPLLFAQK (UniProt Q8N1G0)”, the “probe-labelled cysteine peptide fold change” value runs as follows: (10 µM) 0.0798; (50 µM) 0.0741.
Turning to “ZNF638_Q14966_428_IFPHLCSLCNVECSHLK (UniProt Q14966)”, the “probe-labelled cysteine peptide fold change” value reads like this: (10 µM) 0.189; (50 µM) 0.294.
“ZFYVE1_Q9HBF4_302_CGLDVPLSTLGPAVIIFHETVHTQLLGSDHPSEVPEK (UniProt Q9HBF4)”: the “probe-labelled cysteine peptide fold change” value (10 µM) is -0.00207 and the “probe-labelled cysteine peptide fold change” value (50 µM) came out at 0.0408.
On to “ZNF516_Q92618_165_KGAEGSACAPGEAK (UniProt Q92618)”, for which the “probe-labelled cysteine peptide fold change” value (10 µM) was determined as 0.0165 and the “probe-labelled cysteine peptide fold change” value (50 µM) is -0.317.
Consider “ZNF274_Q96GC6_565+568_VHSGERPFECQECGR (UniProt Q96GC6)”, for which the “probe-labelled cysteine peptide fold change” value by setting is: (10 µM) -0.218; (50 µM) 0.155.
The matching figures for “ZNF76_P36508_292_THTGERPYTCPEPHCGR (UniProt P36508)”: 0.0197 and -0.0549.
Turning to “ZNF592_Q92610_592_IHVPASGYCCLECGDAFALEK (UniProt Q92610)”, the “probe-labelled cysteine peptide fold change” value by setting is: (10 µM) -0.0351; (50 µM) -0.192.
With “ZNF14_P17017_42_NLVCLGK (UniProt P17017)”, the “probe-labelled cysteine peptide fold change” value reads like this: (10 µM) 0.0787; (50 µM) 0.229.
